Measured values taken from publication doi:10.1101/2021.02.09.430422.
No constants are given. Whether binding was seen depends on the method and setting. Binding seen in cells or lysates may run through a third protein. A result given as binding can be weak or reduced; the word gives no strength. Where a sequence is shown, tags or fusion partners need not be part of it.

Biological target: T1, Nse5-3C-His(8) (S. cerevisiae) (UniProt Q03718)
T1 sequence: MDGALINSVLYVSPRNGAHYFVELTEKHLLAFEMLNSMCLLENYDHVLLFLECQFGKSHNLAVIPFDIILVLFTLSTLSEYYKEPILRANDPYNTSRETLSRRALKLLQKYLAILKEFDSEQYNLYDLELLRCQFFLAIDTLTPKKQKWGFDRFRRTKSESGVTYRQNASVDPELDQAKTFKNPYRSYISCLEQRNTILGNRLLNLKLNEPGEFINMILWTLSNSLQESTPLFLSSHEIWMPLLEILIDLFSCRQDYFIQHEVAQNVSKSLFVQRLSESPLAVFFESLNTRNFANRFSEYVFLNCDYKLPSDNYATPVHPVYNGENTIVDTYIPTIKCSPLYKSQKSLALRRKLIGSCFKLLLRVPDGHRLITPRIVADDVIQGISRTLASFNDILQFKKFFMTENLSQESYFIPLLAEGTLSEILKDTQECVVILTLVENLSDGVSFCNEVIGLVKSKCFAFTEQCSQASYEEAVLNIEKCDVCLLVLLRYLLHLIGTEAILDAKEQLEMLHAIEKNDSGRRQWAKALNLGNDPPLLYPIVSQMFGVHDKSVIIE
Experiment: co-purification after co-expression

binding: binds
Substance: Nse6 (S. cerevisiae)
